Record: PubChem BioAssay AID1224826 (NIAID, 2016)

Assay: 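Knock-downs that raise or lower Tnf reporter signal after endotoxin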 (primary screen)
System: RAW264.7 G9 macrophages from mouse bearing reporters for p65 (GFP) and the Tnf promoter (mCherry)
Reagent: siRNA pool against mouse genes, 100 nM
Time to read-out: 16 h of LPS stimulation, after 2 days of siRNA transfection
Challenge: bacterial lipopolysaccharide (Salmonella minnesota R595), 10 ng/ml
Measurement: 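Imaged Tnf reporter mCherry in nuclei, minus background, normalised per plate to the median and expressed as robust z-scores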
Scale: Tnf reporter robust z-score: higher = stronger Tnf promoter reporter signal after LPS; Tnf reporter intensity: higher = stronger Tnf promoter reporter signal
Hit rule: 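a well counts as active at a score of -1.3 or below (Tlr4 knock-down control median) or above 3 (raised signal); controls and wells holding fewer than 50 cells are excluded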
Calls: active = Tnf reporter clearly lowered or raised; inactive = no clear change in Tnf reporter
In all, the deposit lists about 17,000 reagents; this is a random part of them. Over the whole deposit, about 1,110 (6.6%) are marked active. 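Active means lowered or raised reporter signal; replicate intensities are raw and not normalised per plate.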 A number with no mark means an inactive call.

| gene | Tnf reporter robust z-score | fewer than 50 cells in well | Tnf reporter intensity, replicate 1 | Tnf reporter intensity, replicate 2 |
| --- | --- | --- | --- | --- |
| Rps6kc1 | 0.5 | enough cells in well | 237 | 247 |
| Or5a3 | 0.35 | enough cells in well | 271 | 86.6 |
| Ticrr | 0.73 | enough cells in well | 225 | 295 |
| Cyth2 | -0.57 | enough cells in well | 156 | 192 |
| Hnrnph1 | -1.82 (active) | enough cells in well | 108 | 54.1 |
| Lrrtm1 | -0.55 | enough cells in well | 113 | 154 |
| Fgfr1 | -0.58 | enough cells in well | 125 | 155 |
| Tmem117 | 0.44 | enough cells in well | 231 | 245 |
| Sack1g | – | fewer than 50 cells per well; well left out of calls | 206 | 87.2 |
| Zfp956 | 0.09 | enough cells in well | 211 | 194 |
| Cxcl3 | 1.71 | enough cells in well | 432 | 229 |
| Hs6st3 | -1.64 (active) | enough cells in well | 119 | 52.6 |
| Chd6 | 0.52 | enough cells in well | 287 | 176 |
| Herc2 | 0.83 | enough cells in well | 309 | 236 |
| Adh5 | 0.4 | enough cells in well | 187 | 197 |
| Myocd | -1.49 (active) | enough cells in well | 130 | 103 |
| Or51g1 | – | fewer than 50 cells per well; well left out of calls | 12.6 | 68.7 |
| Ccna1 | -0.66 | enough cells in well | 196 | 157 |
| Eif4enif1 | 0.68 | enough cells in well | 261 | 121 |
| Kcnmb2 | -1.11 | enough cells in well | 135 | 72.2 |
| Or51a6 | -0.69 | enough cells in well | 55.5 | 88.4 |
| Cdip1 | 0.64 | enough cells in well | 229 | 166 |
| Mdga2 | 2.14 | enough cells in well | 386 | 203 |
| Tmem71 | -1.46 (active) | enough cells in well | 108 | 90.8 |
| Zeb1 | 0.31 | enough cells in well | 256 | 251 |
| Alas1 | 0.87 | enough cells in well | 263 | 246 |
| Iqsec1 | -1.36 (active) | enough cells in well | 121 | 71.3 |
| Hmox2 | -0.16 | enough cells in well | 216 | 187 |
| Pnoc | – | fewer than 50 cells per well; well left out of calls | 97.9 | 132 |
| Mogat1 | 2.78 | enough cells in well | 369 | 245 |
| Evi2a | -0.39 | enough cells in well | 188 | 137 |
| Prss58 | 1.01 | enough cells in well | 362 | 80.6 |
| Hao1 | 0.75 | enough cells in well | 290 | 218 |
| Fcgr4 | -0.95 | enough cells in well | 141 | 174 |
| Acaa1b | -1.43 (active) | enough cells in well | 102 | 54 |
| Ttc23 | – | fewer than 50 cells per well; well left out of calls | 203 | 50.7 |
| Or6c201 | – | fewer than 50 cells per well; well left out of calls | 69.5 | 30.4 |
| Paral1 | -1.14 | enough cells in well | 141 | 112 |
| 6030443O07RIK | 0.53 | enough cells in well | 191 | 189 |
| Ahsa2 | – | fewer than 50 cells per well; well left out of calls | 161 | 76.5 |
| Or8b9 | -0.84 | enough cells in well | 80.4 | 71.5 |
| Dnaja2 | – | fewer than 50 cells per well; well left out of calls | 85.8 | 150 |
| Fam221a | 1.81 | enough cells in well | 362 | 212 |
| Or8k32 | 0.91 | enough cells in well | 224 | 213 |
| Smr2 | -0.53 | enough cells in well | 89.4 | 50.9 |
| H4c16 | -0.57 | enough cells in well | 207 | 127 |
| Sohlh2 | – | fewer than 50 cells per well; well left out of calls | 232 | 97.6 |
| Atp1b1 | -0.97 | enough cells in well | 132 | 94.5 |
| Mapk14 | – | fewer than 50 cells per well; well left out of calls | 131 | 97.8 |
| Mterf2 | -0.19 | enough cells in well | 140 | 156 |
| Upf1 | 1.48 | enough cells in well | 510 | 277 |
| Ccdc47 | -0.52 | enough cells in well | 207 | 67.4 |
| Tafa4 | 1.01 | enough cells in well | 145 | 226 |
| Xtbd1 | -1.67 (active) | enough cells in well | 90.5 | 66.3 |
| H2-M3 | 0.19 | enough cells in well | 356 | 111 |
| Il36rn | 0.63 | enough cells in well | 248 | 213 |
| Fam53a | -1.21 | enough cells in well | 107 | 84.5 |
| Bmp4 | 1.62 | enough cells in well | 250 | 216 |

4 entries already listed, arranged by “Tnf reporter robust z-score”, descending.
| gene | Tnf reporter robust z-score | fewer than 50 cells in well | Tnf reporter intensity, replicate 1 | Tnf reporter intensity, replicate 2 |
| --- | --- | --- | --- | --- |
| Eif4enif1 | 0.68 | enough cells in well | 261 | 121 |
| Ccna1 | -0.66 | enough cells in well | 196 | 157 |
| Or51a6 | -0.69 | enough cells in well | 55.5 | 88.4 |
| Kcnmb2 | -1.11 | enough cells in well | 135 | 72.2 |
